Measurements as given in patent US20110269211.

Columns and labels:
[1] = test system: T1, Kofu clone 5/7-A6 R410H,A550V,P450L,K480M,K505R,K562R,P743T,V767A (Artificial (KOD/Pfu chimera)); assay: activity assay; details: M13 primer extension, 2.5 mM MgCl2, 50 C; heparin elution 33.8 mS/cm; purified recombinant protein
T1 sequence (limits assumed): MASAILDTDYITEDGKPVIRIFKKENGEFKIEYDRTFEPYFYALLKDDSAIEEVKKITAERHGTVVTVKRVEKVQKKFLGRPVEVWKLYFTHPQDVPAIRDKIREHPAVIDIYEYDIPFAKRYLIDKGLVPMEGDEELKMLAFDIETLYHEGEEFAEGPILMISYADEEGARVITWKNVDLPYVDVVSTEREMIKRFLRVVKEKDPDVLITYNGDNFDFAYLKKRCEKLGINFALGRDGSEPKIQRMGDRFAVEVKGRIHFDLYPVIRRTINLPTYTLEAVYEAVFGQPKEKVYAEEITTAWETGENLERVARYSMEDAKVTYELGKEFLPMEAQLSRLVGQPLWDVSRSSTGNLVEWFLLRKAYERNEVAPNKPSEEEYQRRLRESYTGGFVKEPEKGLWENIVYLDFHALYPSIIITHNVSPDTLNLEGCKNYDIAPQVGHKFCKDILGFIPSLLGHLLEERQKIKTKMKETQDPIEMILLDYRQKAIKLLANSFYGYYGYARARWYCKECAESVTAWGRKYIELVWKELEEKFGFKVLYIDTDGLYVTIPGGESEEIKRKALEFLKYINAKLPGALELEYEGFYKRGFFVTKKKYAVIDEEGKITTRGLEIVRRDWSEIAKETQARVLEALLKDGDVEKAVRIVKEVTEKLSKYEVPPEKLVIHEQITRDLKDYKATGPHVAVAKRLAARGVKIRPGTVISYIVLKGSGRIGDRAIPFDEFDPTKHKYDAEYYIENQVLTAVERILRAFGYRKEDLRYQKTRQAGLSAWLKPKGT

[2] = test system: T2, Kofu clone 5/7-H2 (mutation list truncated in print after F721S) A550V,L427F,H459Q,K539R,V600A,I601F,F721S (Artificial (KOD/Pfu chimera)); assay: activity assay; details: M13 primer extension, 2.5 mM MgCl2, 50 C; heparin elution 40.3 mS/cm; purified recombinant protein
T2 sequence (limits assumed): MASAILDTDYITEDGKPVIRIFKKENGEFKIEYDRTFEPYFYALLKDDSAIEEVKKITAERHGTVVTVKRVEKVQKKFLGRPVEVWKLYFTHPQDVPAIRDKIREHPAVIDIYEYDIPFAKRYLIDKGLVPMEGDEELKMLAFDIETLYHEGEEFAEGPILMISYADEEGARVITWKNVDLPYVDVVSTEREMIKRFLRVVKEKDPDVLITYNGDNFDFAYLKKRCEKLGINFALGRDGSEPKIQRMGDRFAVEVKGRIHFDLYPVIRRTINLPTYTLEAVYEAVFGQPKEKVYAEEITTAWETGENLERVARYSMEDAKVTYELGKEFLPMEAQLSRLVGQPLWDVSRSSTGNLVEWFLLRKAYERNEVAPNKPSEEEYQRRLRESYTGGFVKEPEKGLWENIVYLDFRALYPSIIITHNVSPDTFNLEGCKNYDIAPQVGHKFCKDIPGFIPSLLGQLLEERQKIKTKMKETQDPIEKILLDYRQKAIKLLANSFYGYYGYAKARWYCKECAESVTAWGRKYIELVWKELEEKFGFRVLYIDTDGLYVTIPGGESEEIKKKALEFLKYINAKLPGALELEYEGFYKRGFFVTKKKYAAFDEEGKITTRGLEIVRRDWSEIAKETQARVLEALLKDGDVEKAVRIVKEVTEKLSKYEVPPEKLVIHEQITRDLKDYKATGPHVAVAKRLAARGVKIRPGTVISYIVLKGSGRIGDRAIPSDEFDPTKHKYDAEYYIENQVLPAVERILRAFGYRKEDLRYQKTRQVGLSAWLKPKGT

AACGCCAGGGTTTTCCCAGTCACGACGTTGTAAAACGACG
activity on this sequence [1]: 3 fold vs Kofu
activity on this sequence [2]: 3 fold vs Kofu

For at least one entry, the source does not settle the construct or the ends of the probe. Protein sequences can lack the tags named with them.
